The exact form of at least one protein or probe is not confirmed.

This note sets out measurements from patent US6326464.

The target in the data set is wild-type p53 (Homo sapiens) (UniProt P04637). Briefly: EMSA. The note with it: 3-30 ng protein, 5 mM MgCl2, 0.05 mM ZnCl2, 0.1 M NaCl, on ice, 300 ng pAb421; purified recombinant protein; label: 33P 5' end. On the technique in general: A gel shift assay detects complexes by their altered migration in electrophoresis.

On to “GATCCGAACATGTCCCAACATGTTGA / AGCTTCAACATGTTGGGACATGGTCG [WAF-RE]”, for which the binding result is “binds”.
